Differences between knockout arms are mostly noise.
System: SKBR3
Test: relative cell number vs DMSO control (72 h) (% of DMSO); higher = less growth inhibition (more cells)
Method: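 QMAP-Seq: a pool of 5 breast cancer cell lines (ZR-75-1, SKBR3, HCC-38, MDA-MB-231, BT-20), each carrying 12 doxycycline-inducible Cas9 sgRNA perturbations (11 knockouts plus non-targeting sgNT), was treated with compounds for 72 h at four 10-fold doses (10 nM-10 uM or 1 nM-1 uM range). Barcodes were amplified and sequenced, and cell number was interpolated from 293T spike-in standard curves. The result is expressed as % of the median of DMSO wells. Two biological replicates.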

CCC(C)(C)C(=O)O[C@H]1C[C@@H](C)C=C2C=C[C@H](C)[C@H](CC[C@@H]3C[C@@H](O)CC(=O)O3)[C@H]21 [Simvastatin]
Conditions | relative cell number
sgRNA knockout: sgATF3, 10 nM | 108
sgRNA knockout: sgATF3, 100 nM | 90.3
sgRNA knockout: sgATF3, 1000 nM | 93.7
sgRNA knockout: sgATF3, 10000 nM | 115
sgRNA knockout: sgATF4, 10 nM | 102
sgRNA knockout: sgATF4, 100 nM | 84.4
sgRNA knockout: sgATF4, 1000 nM | 87.8
sgRNA knockout: sgATF4, 10000 nM | 94.9
sgRNA knockout: sgATF6, 10 nM | 89.9
sgRNA knockout: sgATF6, 100 nM | 88.9
sgRNA knockout: sgATF6, 1000 nM | 84.3
sgRNA knockout: sgATF6, 10000 nM | 100
sgRNA knockout: sgATG7, 10 nM | 94.5
sgRNA knockout: sgATG7, 100 nM | 102
sgRNA knockout: sgATG7, 1000 nM | 87.2
sgRNA knockout: sgATG7, 10000 nM | 95.9
sgRNA knockout: sgERN1, 10 nM | 102
sgRNA knockout: sgERN1, 100 nM | 87.1
sgRNA knockout: sgERN1, 1000 nM | 99.11
sgRNA knockout: sgERN1, 10000 nM | 84
sgRNA knockout: sgHSF1, 10 nM | 99.9
sgRNA knockout: sgHSF1, 100 nM | 100
sgRNA knockout: sgHSF1, 1000 nM | 89.9
sgRNA knockout: sgHSF1, 10000 nM | 102
sgRNA knockout: sgHSF2, 10 nM | 110
sgRNA knockout: sgHSF2, 100 nM | 91.4
sgRNA knockout: sgHSF2, 1000 nM | 86
sgRNA knockout: sgHSF2, 10000 nM | 87.4
sgRNA knockout: sgKEAP1, 10 nM | 96.2
sgRNA knockout: sgKEAP1, 100 nM | 92.3
sgRNA knockout: sgKEAP1, 1000 nM | 82.4
sgRNA knockout: sgKEAP1, 10000 nM | 98.1
sgRNA knockout: sgNFE2L2, 10 nM | 98.9
sgRNA knockout: sgNFE2L2, 100 nM | 94.2
sgRNA knockout: sgNFE2L2, 1000 nM | 89.4
sgRNA knockout: sgNFE2L2, 10000 nM | 104
sgRNA knockout: sgSLC35F2, 10 nM | 88.1
sgRNA knockout: sgSLC35F2, 100 nM | 95.4
sgRNA knockout: sgSLC35F2, 1000 nM | 120
sgRNA knockout: sgSLC35F2, 10000 nM | 96
sgRNA knockout: sgXBP1, 10 nM | 85.5
sgRNA knockout: sgXBP1, 100 nM | 102
sgRNA knockout: sgXBP1, 1000 nM | 106
sgRNA knockout: sgXBP1, 10000 nM | 110

CN1CCN(c2ccc(C(=O)Nc3n[nH]c4ccc(Cc5cc(F)cc(F)c5)cc34)c(NC3CCOCC3)c2)CC1 [Entrectinib]
Conditions | relative cell number
sgRNA knockout: sgATF3, 1 nM | 105
sgRNA knockout: sgATF3, 10 nM | 96.8
sgRNA knockout: sgATF3, 100 nM | 89.6
sgRNA knockout: sgATF3, 1000 nM | 104
sgRNA knockout: sgATF4, 1 nM | 77.5
sgRNA knockout: sgATF4, 10 nM | 82.6
sgRNA knockout: sgATF4, 100 nM | 71
sgRNA knockout: sgATF4, 1000 nM | 88.1
sgRNA knockout: sgATF6, 1 nM | 85.9
sgRNA knockout: sgATF6, 10 nM | 92.7
sgRNA knockout: sgATF6, 100 nM | 74
sgRNA knockout: sgATF6, 1000 nM | 91.2
sgRNA knockout: sgATG7, 1 nM | 96.9
sgRNA knockout: sgATG7, 10 nM | 83.7
sgRNA knockout: sgATG7, 100 nM | 79.2
sgRNA knockout: sgATG7, 1000 nM | 98.6
sgRNA knockout: sgERN1, 1 nM | 102
sgRNA knockout: sgERN1, 10 nM | 93.2
sgRNA knockout: sgERN1, 100 nM | 94.49
sgRNA knockout: sgERN1, 1000 nM | 106
sgRNA knockout: sgHSF1, 1 nM | 89
sgRNA knockout: sgHSF1, 10 nM | 67.1
sgRNA knockout: sgHSF1, 100 nM | 91.7
sgRNA knockout: sgHSF1, 1000 nM | 107
sgRNA knockout: sgHSF2, 1 nM | 90.5
sgRNA knockout: sgHSF2, 10 nM | 94.8
sgRNA knockout: sgHSF2, 100 nM | 78.5
sgRNA knockout: sgHSF2, 1000 nM | 91.47
sgRNA knockout: sgKEAP1, 1 nM | 93.7
sgRNA knockout: sgKEAP1, 10 nM | 87.6
sgRNA knockout: sgKEAP1, 100 nM | 86.7
sgRNA knockout: sgKEAP1, 1000 nM | 85.2
sgRNA knockout: sgNFE2L2, 1 nM | 77
sgRNA knockout: sgNFE2L2, 10 nM | 100
sgRNA knockout: sgNFE2L2, 100 nM | 94.2
sgRNA knockout: sgNFE2L2, 1000 nM | 79
sgRNA knockout: sgSLC35F2, 1 nM | 102
sgRNA knockout: sgSLC35F2, 10 nM | 80.3
sgRNA knockout: sgSLC35F2, 100 nM | 94.5
sgRNA knockout: sgSLC35F2, 1000 nM | 104
sgRNA knockout: sgXBP1, 1 nM | 105
sgRNA knockout: sgXBP1, 10 nM | 121
sgRNA knockout: sgXBP1, 100 nM | 78
sgRNA knockout: sgXBP1, 1000 nM | 97.1

S=c1nc[nH]c2nc[nH]c12 [6-Mercaptopurine]
Conditions | relative cell number
sgRNA knockout: sgATF3, 10 nM | 102
sgRNA knockout: sgATF3, 100 nM | 68.7
sgRNA knockout: sgATF3, 1000 nM | 72.5
sgRNA knockout: sgATF3, 10000 nM | 66.2
sgRNA knockout: sgATF4, 10 nM | 89.8
sgRNA knockout: sgATF4, 100 nM | 96.03
sgRNA knockout: sgATF4, 1000 nM | 82.6
sgRNA knockout: sgATF4, 10000 nM | 46.4
sgRNA knockout: sgATF6, 10 nM | 106
sgRNA knockout: sgATF6, 100 nM | 74.1
sgRNA knockout: sgATF6, 1000 nM | 75.6
sgRNA knockout: sgATF6, 10000 nM | 48.3
sgRNA knockout: sgATG7, 10 nM | 82.8
sgRNA knockout: sgATG7, 100 nM | 78.5
sgRNA knockout: sgATG7, 1000 nM | 79.6
sgRNA knockout: sgATG7, 10000 nM | 47.3
sgRNA knockout: sgERN1, 10 nM | 97.1
sgRNA knockout: sgERN1, 100 nM | 91.6
sgRNA knockout: sgERN1, 1000 nM | 66.6
sgRNA knockout: sgERN1, 10000 nM | 61.2
sgRNA knockout: sgHSF1, 10 nM | 111
sgRNA knockout: sgHSF1, 100 nM | 90.8
sgRNA knockout: sgHSF1, 1000 nM | 86.7
sgRNA knockout: sgHSF1, 10000 nM | 56.4
sgRNA knockout: sgHSF2, 10 nM | 92.9
sgRNA knockout: sgHSF2, 100 nM | 91.8
sgRNA knockout: sgHSF2, 1000 nM | 65.5
sgRNA knockout: sgHSF2, 10000 nM | 51.6
sgRNA knockout: sgKEAP1, 10 nM | 95.1
sgRNA knockout: sgKEAP1, 100 nM | 77.5
sgRNA knockout: sgKEAP1, 1000 nM | 59.9
sgRNA knockout: sgKEAP1, 10000 nM | 47.2
sgRNA knockout: sgNFE2L2, 10 nM | 81.2
sgRNA knockout: sgNFE2L2, 100 nM | 73
sgRNA knockout: sgNFE2L2, 1000 nM | 70.5
sgRNA knockout: sgNFE2L2, 10000 nM | 57.6
sgRNA knockout: sgSLC35F2, 10 nM | 86.04
sgRNA knockout: sgSLC35F2, 100 nM | 69.5
sgRNA knockout: sgSLC35F2, 1000 nM | 63.8
sgRNA knockout: sgSLC35F2, 10000 nM | 65
sgRNA knockout: sgXBP1, 10 nM | 107
sgRNA knockout: sgXBP1, 100 nM | 95.2
sgRNA knockout: sgXBP1, 1000 nM | 65.9
sgRNA knockout: sgXBP1, 10000 nM | 54.4
